# Inconclusive means that the source gave no clear call. Such entries were picked first, then a sample of the others. Where the call is inconclusive, the potency comes from a doubtful curve fit. Calls of active or inactive are those of the source. The call rests on the fitted dose curve; in most records, active means well fitted curve in the direction sought with a large enough effect; inconclusive means small, poorly fitted or top-dose-only effect, or another doubt; inactive means no such curve, though single readings can be large; an effect the other way counts as inactive or inconclusive.
# By UniProt entry, the sequences of proteins in these tests, tags left out. Where a name states a change or a piece, a line headed by the entry shows the natural chain unless it says otherwise.
# UniProt Q14191, whole entry, looked up: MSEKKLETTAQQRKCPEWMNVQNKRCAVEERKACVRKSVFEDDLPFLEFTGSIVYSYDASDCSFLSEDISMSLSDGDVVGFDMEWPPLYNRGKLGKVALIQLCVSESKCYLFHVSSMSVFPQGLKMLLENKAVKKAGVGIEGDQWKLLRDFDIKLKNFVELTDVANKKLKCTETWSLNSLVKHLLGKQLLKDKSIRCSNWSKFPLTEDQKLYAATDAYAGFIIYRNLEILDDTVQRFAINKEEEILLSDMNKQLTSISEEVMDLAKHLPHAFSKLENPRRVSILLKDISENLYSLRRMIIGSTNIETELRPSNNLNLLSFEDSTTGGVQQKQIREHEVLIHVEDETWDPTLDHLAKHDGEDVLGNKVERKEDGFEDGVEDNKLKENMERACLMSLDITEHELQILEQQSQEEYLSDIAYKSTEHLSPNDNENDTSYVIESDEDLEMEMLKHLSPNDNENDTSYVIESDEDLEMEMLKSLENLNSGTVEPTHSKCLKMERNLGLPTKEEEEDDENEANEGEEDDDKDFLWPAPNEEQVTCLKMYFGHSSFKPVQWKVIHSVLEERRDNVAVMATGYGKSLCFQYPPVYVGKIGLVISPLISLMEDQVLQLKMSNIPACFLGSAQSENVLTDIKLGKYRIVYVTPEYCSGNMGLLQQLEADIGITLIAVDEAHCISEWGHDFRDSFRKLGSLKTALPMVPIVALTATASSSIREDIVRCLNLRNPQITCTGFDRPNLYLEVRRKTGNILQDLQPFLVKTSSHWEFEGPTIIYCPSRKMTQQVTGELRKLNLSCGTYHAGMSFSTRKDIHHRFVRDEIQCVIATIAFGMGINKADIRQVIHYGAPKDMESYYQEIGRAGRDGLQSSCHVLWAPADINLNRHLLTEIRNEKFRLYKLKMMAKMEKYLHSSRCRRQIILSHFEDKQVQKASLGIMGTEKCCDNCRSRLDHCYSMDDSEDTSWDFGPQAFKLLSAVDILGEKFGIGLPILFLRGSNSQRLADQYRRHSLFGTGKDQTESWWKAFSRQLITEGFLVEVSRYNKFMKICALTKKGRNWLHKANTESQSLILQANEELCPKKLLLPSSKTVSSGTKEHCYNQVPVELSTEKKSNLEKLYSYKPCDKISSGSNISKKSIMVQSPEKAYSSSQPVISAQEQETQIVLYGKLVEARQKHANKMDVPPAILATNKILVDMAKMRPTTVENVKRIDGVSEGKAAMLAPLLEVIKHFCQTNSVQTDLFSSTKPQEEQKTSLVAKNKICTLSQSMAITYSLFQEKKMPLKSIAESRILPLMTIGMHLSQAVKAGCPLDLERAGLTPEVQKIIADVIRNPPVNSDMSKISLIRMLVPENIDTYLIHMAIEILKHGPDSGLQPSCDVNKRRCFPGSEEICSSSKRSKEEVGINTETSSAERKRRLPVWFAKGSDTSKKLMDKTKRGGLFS
# UniProt P54132: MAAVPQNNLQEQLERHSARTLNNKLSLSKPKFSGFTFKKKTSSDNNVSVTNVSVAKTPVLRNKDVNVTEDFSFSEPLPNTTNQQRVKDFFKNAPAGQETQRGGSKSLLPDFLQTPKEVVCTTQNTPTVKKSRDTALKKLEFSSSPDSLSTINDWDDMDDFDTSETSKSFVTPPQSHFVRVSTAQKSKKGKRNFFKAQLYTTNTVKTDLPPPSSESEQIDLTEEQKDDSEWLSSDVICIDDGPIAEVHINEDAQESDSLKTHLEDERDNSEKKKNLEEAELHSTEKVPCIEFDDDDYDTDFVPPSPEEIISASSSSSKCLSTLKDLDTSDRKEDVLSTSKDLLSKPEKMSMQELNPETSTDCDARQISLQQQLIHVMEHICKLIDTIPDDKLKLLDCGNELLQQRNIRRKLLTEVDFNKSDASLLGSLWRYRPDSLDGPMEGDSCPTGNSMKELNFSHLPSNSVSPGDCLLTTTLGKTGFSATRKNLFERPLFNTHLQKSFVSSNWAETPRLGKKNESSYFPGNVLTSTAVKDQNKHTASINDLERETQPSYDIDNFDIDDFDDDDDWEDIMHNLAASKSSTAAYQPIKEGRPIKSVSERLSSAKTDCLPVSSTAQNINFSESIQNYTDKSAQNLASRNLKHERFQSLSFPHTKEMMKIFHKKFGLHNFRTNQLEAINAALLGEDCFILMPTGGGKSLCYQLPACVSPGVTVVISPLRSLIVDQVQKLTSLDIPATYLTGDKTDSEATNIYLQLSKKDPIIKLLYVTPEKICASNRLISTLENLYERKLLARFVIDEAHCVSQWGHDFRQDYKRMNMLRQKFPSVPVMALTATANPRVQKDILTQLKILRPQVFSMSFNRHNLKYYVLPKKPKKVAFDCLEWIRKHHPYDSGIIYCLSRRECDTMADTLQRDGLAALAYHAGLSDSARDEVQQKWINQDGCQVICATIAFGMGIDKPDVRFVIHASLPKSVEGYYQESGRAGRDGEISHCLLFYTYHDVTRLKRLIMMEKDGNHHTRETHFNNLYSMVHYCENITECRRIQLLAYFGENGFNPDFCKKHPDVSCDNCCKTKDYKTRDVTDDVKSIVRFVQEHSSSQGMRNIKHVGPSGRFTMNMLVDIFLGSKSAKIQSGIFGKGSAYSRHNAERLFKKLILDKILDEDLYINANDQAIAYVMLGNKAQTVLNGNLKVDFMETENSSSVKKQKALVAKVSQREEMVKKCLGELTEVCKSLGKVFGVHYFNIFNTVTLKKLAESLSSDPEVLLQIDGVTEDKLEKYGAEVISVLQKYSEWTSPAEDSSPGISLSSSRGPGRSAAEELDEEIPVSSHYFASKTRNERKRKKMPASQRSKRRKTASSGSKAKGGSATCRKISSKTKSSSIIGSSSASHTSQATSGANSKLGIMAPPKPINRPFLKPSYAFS
# UniProt Q9Y253: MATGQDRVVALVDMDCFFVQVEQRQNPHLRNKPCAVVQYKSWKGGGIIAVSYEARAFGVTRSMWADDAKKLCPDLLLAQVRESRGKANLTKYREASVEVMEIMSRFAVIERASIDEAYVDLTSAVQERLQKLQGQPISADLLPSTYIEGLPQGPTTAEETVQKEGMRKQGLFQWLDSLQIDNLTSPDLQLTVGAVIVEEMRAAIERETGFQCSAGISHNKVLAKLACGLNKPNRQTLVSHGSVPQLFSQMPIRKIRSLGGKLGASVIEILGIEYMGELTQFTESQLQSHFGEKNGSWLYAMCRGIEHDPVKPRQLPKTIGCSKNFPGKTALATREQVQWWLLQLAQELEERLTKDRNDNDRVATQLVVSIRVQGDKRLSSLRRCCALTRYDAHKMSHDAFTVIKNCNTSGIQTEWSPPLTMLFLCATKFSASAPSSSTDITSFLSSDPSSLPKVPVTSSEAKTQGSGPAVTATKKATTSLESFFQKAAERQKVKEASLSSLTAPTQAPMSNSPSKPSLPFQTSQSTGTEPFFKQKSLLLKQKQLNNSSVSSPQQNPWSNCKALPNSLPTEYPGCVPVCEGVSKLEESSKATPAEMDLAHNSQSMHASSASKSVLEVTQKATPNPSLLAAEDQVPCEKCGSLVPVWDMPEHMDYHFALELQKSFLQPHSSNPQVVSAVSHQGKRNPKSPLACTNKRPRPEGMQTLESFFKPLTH
# UniProt Q9UBT6: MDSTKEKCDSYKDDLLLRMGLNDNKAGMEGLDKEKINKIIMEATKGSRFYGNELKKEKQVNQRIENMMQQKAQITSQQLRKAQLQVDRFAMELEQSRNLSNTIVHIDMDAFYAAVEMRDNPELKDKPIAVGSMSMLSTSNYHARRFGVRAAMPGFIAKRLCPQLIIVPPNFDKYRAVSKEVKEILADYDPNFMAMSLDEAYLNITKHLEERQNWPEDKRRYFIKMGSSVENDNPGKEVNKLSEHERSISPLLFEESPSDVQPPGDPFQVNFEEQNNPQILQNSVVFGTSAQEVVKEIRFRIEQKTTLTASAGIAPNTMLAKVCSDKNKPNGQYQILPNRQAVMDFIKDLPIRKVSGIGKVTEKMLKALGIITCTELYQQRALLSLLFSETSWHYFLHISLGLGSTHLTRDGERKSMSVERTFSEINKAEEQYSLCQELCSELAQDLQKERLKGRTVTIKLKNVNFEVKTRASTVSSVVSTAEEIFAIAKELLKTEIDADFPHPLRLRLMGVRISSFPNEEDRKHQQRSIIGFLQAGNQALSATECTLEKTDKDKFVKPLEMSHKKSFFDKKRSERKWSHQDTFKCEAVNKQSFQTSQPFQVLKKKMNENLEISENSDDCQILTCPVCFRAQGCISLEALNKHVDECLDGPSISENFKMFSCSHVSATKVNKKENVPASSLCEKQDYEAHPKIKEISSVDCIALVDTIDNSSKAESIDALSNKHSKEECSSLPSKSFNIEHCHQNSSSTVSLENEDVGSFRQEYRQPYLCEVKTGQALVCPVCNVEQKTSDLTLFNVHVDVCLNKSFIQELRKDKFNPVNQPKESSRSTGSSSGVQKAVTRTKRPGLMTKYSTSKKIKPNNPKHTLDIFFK
# Legend:
# [1] = molecular target: Bifunctional 3'-5' exonuclease/ATP-dependent helicase WRN (Homo sapiens) (UniProt Q14191); experiment: qHTS for Inhibitors of WRN Helicase: Confirmatory Assay for Cherry-picked Compounds. (AID 720497); further: nearly all actives have a fitted effect of over 65% in size
# Method in brief: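 WRN (20 nM) was preincubated 15 min at RT with compound, then started with 100 nM forked duplex oligonucleotide and 2 mM ATP. Unwinding was read kinetically by red fluorescence (ex 525/em 598 nm), normalized to enzyme-free and uninhibited controls.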
# [2] = molecular target: RecQ-like DNA helicase BLM (Homo sapiens) (UniProt P54132); experiment: qHTS for Inhibitors of WRN Helicase: BLM Helicase Counterscreen for WRN Inhibitors (AID 720503); further: nearly all actives have a fitted effect of over 60% in size
# Method in brief: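 Reactions were started with 100 nM DNA substrate and 2 mM ATP (final) after compound and 1 nM BLM stood 15 min at room temperature in Tris-HCl pH 8.0 buffer with NaCl, MgCl2, DTT and Tween-20. Two red-fluorescence reads 15 min apart were normalized against DMSO and no-enzyme wells.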
# [3] = molecular target: Rap guanine nucleotide exchange factor 3 (Homo sapiens) (UniProt O95398); experiment: Confirmatory qHTS for antagonist of cAMP-regulated guanine nucleotide exchange factor 3 (EPAC1) (AID 1645880); settings: EPAC1 Rap1B-BODIPY-GDP exchange, fluorescence; activity, negative = inhibition: at 115 µM (top of the series); further: nearly all actives have a fitted effect of over 55% in size;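 on activity, negative = inhibition: plate controls were DMSO only for no effect and full effect of the ATA control for full effect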
# Method in brief: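 Released BODIPY-GDP fluoresces less than Rap1-bound BODIPY-GDP; the signal is followed at 480/540 nm at 5-min intervals over 30 min, after 5 min at room temperature. Reactions contain 100 nM EPAC1, 250 nM RAP1B-BODIPY-GDP and 50 uM GDP; results are normalized to ATA and DMSO.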
# [4] = molecular target: Rap guanine nucleotide exchange factor 3 (Homo sapiens) (UniProt O95398); experiment: Counterscreen qHTS for agonist of cAMP-regulated guanine nucleotide exchange factor 3 (EPAC1) (AID 1645889); settings: EPAC1 Rap1B-BODIPY-GDP exchange, fluorescence; activation: at 154 µM (top of the series) unless noted; further: nearly all actives have a fitted effect of over 40% in size; on activation: % of control where 0% means no effect
# Method in brief: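 Rap1B-BODIPY-GDP 250 nM + GDP 50 uM; cpds 7-pt, final 9.74 nM–152 uM (activator mode) or from 7.32 nM upwards (inhibitor mode); RT; FI 480/540 nm at 5 and 30 min, then ± cAMP, reread.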
# [5] = molecular target: DNA polymerase eta (Homo sapiens) (UniProt Q9Y253); experiment: qHTS for Inhibitors of Polymerase Eta: Confirmatory Assay for Cherry-picked Compounds (AID 720502); settings: Pol eta primer extension, TAMRA/BHQ fluorescence, 10 min
# Method in brief: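 Pol eta 10 nM; substrate 50 nM final (unlabeled primer, TAMRA reporter, BHQ-2 template); preincub. 15 min RT; reads t=0 and t=10 min at ex525/em598.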
# [6] = molecular target: DNA polymerase kappa (Homo sapiens) (UniProt Q9UBT6); experiment: qHTS for Inhibitors of Polymerase Kappa: Confirmatory Assay for Cherry-picked Compounds (AID 720501); settings: purified Pol-kappa, fluorescent strand-displacement substrate
# Method in brief: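 Strand-displacement fluorescence read-out: TAMRA reporter released from a BHQ-2-quenched template, measured at 525/598 nm over a 10 min kinetic window. Substrate was 50 nM final; enzyme was 10 nM Pol-kappa, preincubated 15 min at room temperature with compound.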
# [7] = qHTS for Inhibitors of WRN Helicase: Thiazole Orange DNA Binding Counterscreen (AID 720499);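 further: drop in dye fluorescence marks compound binding to DNA; nearly all actives have a fitted effect of over 60% in size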
# Method in brief: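 Counterscreen to remove nonspecific DNA binders from WRN helicase hits. Compounds were incubated 15 min at room temperature with 50 nM DNA and 100 nM ThO, then fluorescence was recorded (480 nm excitation, 530 nm emission).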
# Potency means the concentration at half of the fitted maximal effect.
smiles,measurement,setting,value
O=S(=O)(Nc1cc(Sc2ncn[nH]2)c(O)c2ccccc12)c1ccccc1,Potency,[1],"inconclusive: 17.1 µM [inhibitor, partial curve]"
same,Potency,[2],"inconclusive: 21.5 µM [inhibitor, partial curve]"
same,Potency,[3],"inconclusive: 63.1 µM [inhibitor, partial curve, poor fit]"
same,Potency,[4],"inconclusive: 2.24 µM [activator, partial curve, poor fit]"
CCc1cc(C(=O)Nc2ccc(S(=O)(=O)NC3=NCCCCC3)cc2)sc1C,Potency,[5],"inconclusive: 84.9 µM [inhibitor, single point]"
same,Potency,[3],"inconclusive: 50.1 µM [inhibitor, partial curve, poor fit]"
same,Potency,[4],"inconclusive: 12.6 µM [activator, single point]"
Cc1cc(/C=C2\C(=N)N3N=C(c4ccco4)SC3=NC2=O)c(C)n1Cc1ccccc1,Potency,[6],active: 16.8 µM
same,Potency,[3],"inconclusive: 19 µM [inhibitor, full curve, poor fit]"
same,activation,[4],inconclusive: 50.7% [activator]
O=C(/C=C/c1ccco1)c1cccc([N+](=O)[O-])c1,Potency,[5],"inconclusive: 95.3 µM [inhibitor, single point]"
same,Potency,[3],active: 42.6 µM
same,Potency,[4],"inconclusive: 20 µM [activator, single point]"
O=C(CSc1nnc(SCc2ccccc2)s1)N/N=C/C=C/c1ccco1,Potency,[6],active: 15 µM
same,Potency,[3],active: 12.6 µM
same,activation,[4],inconclusive: 32.2% [activator] [at 30.8 µM]
O=C1N=c2ccccc2=C1c1sc(Nc2ccc(O)cc2)nc1O,Potency,[5],"inconclusive: 75.7 µM [inhibitor, single point]"
same,Potency,[3],active: 30.1 µM
same,activation,[4],inconclusive: 27.7% [activator]
CC1(C)Cc2c(C#N)c(N3CCN(C(=O)c4ccccc4Cl)CC3)nc(-c3ccco3)c2CS1,Potency,[1],inactive
same,Potency,[7],inactive
same,Potency,[2],"inconclusive: 19.2 µM [inhibitor, partial curve, poor fit]"
same,Potency,[3],active: 26.9 µM
same,Potency,[4],"inconclusive: 7.94 µM [activator, full curve, poor fit]"
O=C(N/N=C/C=C\c1ccco1)c1ccccn1,Potency,[5],"inconclusive: 84.9 µM [inhibitor, single point]"
same,Potency,[3],active: 6.01 µM
same,Potency,[4],inactive
CCCCC1=CC2=CC(=O)C(C)(OC(=O)C3CCCC3)C(=O)C2=CO1 (configuration not stated),Potency,[5],"inconclusive: 84.9 µM [inhibitor, single point]"
same,Potency,[3],active: 39.8 µM
same,activation,[4],inactive: 18% [at 30.8 µM]
Oc1ccc(NCc2ccccc2OCc2ccc(Cl)cc2)cc1,Potency,[5],"inconclusive: 95.3 µM [inhibitor, single point]"
same,Potency,[3],active: 75.7 µM
same,activation,[4],inconclusive: 57.5% [activator]
CCOC(=O)c1ccc(NC(=O)c2c(NCc3cccs3)sc3c2CCCCC3)cc1,Potency,[5],"inconclusive: 95.3 µM [inhibitor, single point]"
same,Potency,[3],"inconclusive: 75.7 µM [inhibitor, partial curve, poor fit]"
same,Potency,[4],"inconclusive: 10 µM [activator, partial curve]"
CCc1ccc2c(c1)C(NC(C)=O)C(=O)N2CCN1CCOCC1 (configuration not stated),Potency,[1],"inconclusive: 24.1 µM [inhibitor, single point]"
same,Potency,[3],active: 19 µM
same,activation,[4],inconclusive: 37.6% [activator]
C/C=C/COC(=O)c1[nH]c2c(c1C)C(=O)CC(c1ccco1)C2 (configuration not stated),Potency,[5],"inconclusive: 84.9 µM [inhibitor, single point]"
same,Potency,[3],"inconclusive: 75.7 µM [inhibitor, partial curve]"
same,activation,[4],inconclusive: 17.6% [activator]
COc1ccc(NC(=O)CSc2sc3c(O)cc(=O)[nH]c3c2C#N)c(OC)c1,Potency,[6],"inconclusive: 37.7 µM [inhibitor, partial curve]"
same,Potency,[5],"inconclusive: 84.9 µM [inhibitor, single point]"
same,Potency,[3],"inconclusive: 35.5 µM [inhibitor, partial curve]"
same,Potency,[4],"inconclusive: 1.78 µM [activator, full curve, poor fit]"
N#C/C(=C\c1ccc(O)c(O)c1)C(=O)Nc1cccc2ncccc12,Potency,[7],active: 12.1 µM
same,Potency,[3],active: 7.57 µM
same,activation,[4],inconclusive: 26.4% [activator]
O=C1NN(c2ccccc2)C(=O)/C1=C\c1coc2ccc(O)cc2c1=O,Potency,[1],inactive
same,Potency,[7],inactive
same,Potency,[5],"inconclusive: 95.3 µM [inhibitor, single point]"
same,Potency,[2],"inconclusive: 27.1 µM [inhibitor, partial curve]"
same,Potency,[3],active: 21.3 µM
same,Potency,[4],"inconclusive: 0.0079 µM [activator, full curve, poor fit]"
O=C1Nc2c(Cl)cc(Cl)cc2C1=O,Potency,[5],"inconclusive: 84.9 µM [inhibitor, single point]"
same,Potency,[3],inactive
same,Potency,[4],active: 31.6 µM
COc1ccc(Cl)cc1NC(=O)c1c(NCc2ccc(C)o2)sc2c1CCCCC2,Potency,[6],"inconclusive: 42.3 µM [inhibitor, partial curve, poor fit]"
same,Potency,[5],"inconclusive: 95.3 µM [inhibitor, single point]"
same,Potency,[3],"inconclusive: 84.9 µM [inhibitor, single point]"
same,Potency,[4],"inconclusive: 1.78 µM [activator, full curve, poor fit]"
O=C(c1ccccc1)c1ccc2nc(-c3ccco3)c(-c3ccco3)nc2c1,Potency,[6],"inconclusive: 67 µM [inhibitor, partial curve]"
same,Potency,[5],"inconclusive: 75.7 µM [inhibitor, partial curve, poor fit]"
same,Potency,[2],active: 8.57 µM
same,Potency,[3],active: 4.78 µM
same,Potency,[4],"inconclusive: 0.562 µM [activator, full curve, poor fit]"
O=S(=O)(c1cc(O)ccc1O)c1cccc2c(S(=O)(=O)c3cc(O)ccc3O)cccc12,Potency,[6],active: 9.47 µM
same,Potency,[3],active: 44.7 µM
same,Potency,[4],"inconclusive: 5.62 µM [activator, partial curve, poor fit]"
Cc1cc(C)c(S(=O)(=O)/N=C2\C=C(Nc3ccc(C(=O)O)cc3)C(=O)c3ccccc32)c(C)c1,Potency,[7],"inconclusive: 24.1 µM [inhibitor, partial curve]"
same,Potency,[3],"inconclusive: 42.6 µM [inhibitor, partial curve]"
same,Potency,[4],"inconclusive: 15.8 µM [activator, partial curve, poor fit]"
N#C/C(=C\c1ccc(O)c([N+](=O)[O-])c1)c1nc2ccccc2s1,Potency,[7],active: 21.5 µM
same,Potency,[3],active: 33.8 µM
same,activation,[4],inconclusive: 24.7% [activator]
Cc1cc(/C=C2\SC(=S)NC2=O)c(C)n1-c1cccc(O)c1,Potency,[5],"inconclusive: 84.9 µM [inhibitor, single point]"
same,Potency,[3],"inconclusive: 95.3 µM [inhibitor, single point]"
same,Potency,[4],"inconclusive: 7.94 µM [activator, full curve]"
COc1ccc(Br)cc1/C=N/Nc1ccc(S(=O)(=O)Nc2ccccc2C(=O)O)cc1[N+](=O)[O-],Potency,[6],active: 42.3 µM
same,Potency,[5],"inconclusive: 84.9 µM [inhibitor, single point]"
same,Potency,[3],active: 25.1 µM
same,activation,[4],inactive: 19% [at 30.8 µM]
O=C(O)CN1C(=O)/C(=C\c2cc(Br)ccc2OCc2ccccc2F)SC1=S,Potency,[5],"inconclusive: 95.3 µM [inhibitor, single point]"
same,Potency,[3],active: 35.5 µM
same,activation,[4],inconclusive: 40.8% [activator] [at 30.8 µM]
COc1ccc(C=NNc2ccc([N+](=O)[O-])cc2S(=O)(=O)Nc2ccccc2C(=O)O)cc1OC,Potency,[5],"inconclusive: 95.3 µM [inhibitor, single point]"
same,Potency,[3],active: 25.1 µM
same,activation,[4],inactive: 21.9% [at 30.8 µM]
CN1CCN(C2=C(Cl)C(=O)c3ccccc3C2=O)CC1,Potency,[1],"inconclusive: 15.2 µM [inhibitor, partial curve]"
same,Potency,[7],inactive
same,Potency,[3],active: 25.1 µM
same,Potency,[4],"inconclusive: 10 µM [activator, single point]"
O=C(NCc1ccccc1)c1ccc2c(=O)[nH]c3c(C(=O)NCC4CCCO4)sc(=S)n3c2c1 (configuration not stated),Potency,[5],"inconclusive: 95.3 µM [inhibitor, single point]"
same,Potency,[3],"inconclusive: 84.9 µM [inhibitor, partial curve]"
same,Potency,[4],inactive
O=C(CCN1C(=O)S/C(=C\c2ccccc2)C1=O)Nc1ccc(S(=O)(=O)Nc2nccs2)cc1,Potency,[1],"inconclusive: 21.5 µM [inhibitor, partial curve]"
same,Potency,[7],"inconclusive: 42.9 µM [inhibitor, single point]"
same,Potency,[5],"inconclusive: 95.3 µM [inhibitor, single point]"
same,Potency,[2],"inconclusive: 21.5 µM [inhibitor, partial curve, poor fit]"
same,Potency,[3],active: 39.8 µM
same,Potency,[4],"inconclusive: 0.316 µM [activator, full curve, poor fit]"
O=C(O)CN1C(=O)/C(=C\c2cccc(OCc3ccc(Cl)cc3Cl)c2)SC1=S,Potency,[5],"inconclusive: 84.9 µM [inhibitor, single point]"
same,Potency,[3],active: 44.7 µM
same,activation,[4],inactive: 8.88% [at 30.8 µM]
CC(/C=C1\SC(=S)N(CCC(=O)Nc2cccc(C(=O)O)c2)C1=O)=C\c1ccccc1,Potency,[6],"inconclusive: 84.4 µM [inhibitor, single point]"
same,Potency,[5],"inconclusive: 84.9 µM [inhibitor, single point]"
same,Potency,[3],"inconclusive: 50.1 µM [inhibitor, partial curve]"
same,activation,[4],inactive: 16.2% [at 30.8 µM]
O=C1NN(c2cccc(Br)c2)C(=O)/C1=C/c1ccc(-c2cc([N+](=O)[O-])ccc2O)o1,Potency,[5],active: 30.1 µM
same,Potency,[3],active: 16.9 µM
same,Potency,[4],"inconclusive: 0.199 µM [activator, full curve, poor fit]"

# Retrieved one by one from the list above, 3 records:
smiles,measurement,setting,value
N#C/C(=C\c1ccc(O)c([N+](=O)[O-])c1)c1nc2ccccc2s1,Potency,[7],active: 21.5 µM
COc1ccc(Br)cc1/C=N/Nc1ccc(S(=O)(=O)Nc2ccccc2C(=O)O)cc1[N+](=O)[O-],activation,[4],inactive: 19% [at 30.8 µM]
CC(/C=C1\SC(=S)N(CCC(=O)Nc2cccc(C(=O)O)c2)C1=O)=C\c1ccccc1,Potency,[3],"inconclusive: 50.1 µM [inhibitor, partial curve]"

# Two entries from above in a different format.
smiles	measurement	setting	value
COc1ccc(Br)cc1/C=N/Nc1ccc(S(=O)(=O)Nc2ccccc2C(=O)O)cc1[N+](=O)[O-]	Potency	[5]	inconclusive: 84.9 µM [inhibitor, single point]
same	Potency	[3]	active: 25.1 µM

# An excerpt of these results, with bars between the fields.
smiles | measurement | setting | value
CCc1ccc2c(c1)C(NC(C)=O)C(=O)N2CCN1CCOCC1 (configuration not stated) | Potency | [3] | active: 19 µM
O=C(NCc1ccccc1)c1ccc2c(=O)[nH]c3c(C(=O)NCC4CCCO4)sc(=S)n3c2c1 (configuration not stated) | Potency | [3] | inconclusive: 84.9 µM [inhibitor, partial curve]

# From PubChem BioAssay (NCATS)
